Experimental data published in patent US20250163149A1, “ANTI-RAGE ANTIBODY” (Swansea University, priority 2022, published 2025).
Results are given in words; binding and its absence hold for the method and conditions named. Some binding calls cover weakened binding; strength is not graded here.

Columns and labels:
[1] = biological target: synthetic peptide S155 of the RAGE V-domain (amino acids 39-65) (human); test: SPR (Biacore T200), antibody amine-coupled to CM5, peptide as analyte
[2] = biological target: synthetic peptide S155 of the RAGE V-domain (amino acids 39-65) (human); test: ELISA, BSA-conjugated peptide S155 on the plate, two-fold dilutions of antibody, HRP anti-mouse, OD 450 nm

- binding [1]: binds
- binding [2]: binds
B1: murine IG7 anti-RAGE monoclonal antibody (antibody, V domains shown)
VH: EVKLDETGGGLVQPGRPMKLSCIASGFTLSDYWMNWVRQSPEKGLEWVAQIRNRPYNFETLYSDSVKGRFIISRDDSKNSVYLQMDNLGPDDSGIYYCSSYRYGLAYWGQGTLVTVSA
VL: DILLTQSPAILSVSPGERVSISCRASQTIDKRIHWYQQRTNGSPRLLIKYMSESISGTPSRFSGSGSGTDFTLTINSVESEDIAVYYCQQTNYWPITFGSGTKLELK
notes: Same VH and VL as BG7; also called ID7
